Record: PubChem BioAssay AID743121 (NCATS, 2013)

Purpose: 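Genes whose silencing strengthens cell killing by camptothecin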 (primary screen)
System: MDA-MB-231 cells, a human breast cancer line
Reagent: single siRNA against human genes, 20 nM siRNA (0.8 pmol per well)
Timing: 120 h (drug added 48 h after transfection, read 72 h later)
Treatment: camptothecin 20 nM (about EC30) for 72 h; vehicle 0.1% DMSO in parallel plates
Measured: 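CellTiter-Glo ATP signal, scaled to control siRNA as percent viability; sensitisation given as log2 of untreated divided by camptothecin-treated viability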
Direction: log2 vehicle/camptothecin viability: higher = stronger sensitisation to camptothecin; viability with camptothecin and viability without drug: higher = more viable cells
Rule for the call: 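Each gene scored by redundant siRNA activity (RSA) over its individual siRNA ratios; a gene is called active at p < 0.001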
In all, the deposit lists about 26,000 reagents; this is a part drawn at random. 167 of them (0.63%) count as active. 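Calls are per gene from RSA p-values that are not deposited; an individual active-marked siRNA can sensitise only weakly.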 The numbers tell different reagents against one gene apart.

gene knocked down | reagent | log2 vehicle/camptothecin viability | viability with camptothecin (% of control) | viability without drug (% of control) | Outcome
CHRFAM7A (CHRNA7 (exons 5-10) and FAM7A (exons A-E) fusion) | 1 | -0.687 | 76.6 | 47.6 | inactive
CHRFAM7A (CHRNA7 (exons 5-10) and FAM7A (exons A-E) fusion) | 2 | -0.359 | 143 | 112 | inactive
CHRFAM7A (CHRNA7 (exons 5-10) and FAM7A (exons A-E) fusion) | 3 | -0.0958 | 108 | 101 | inactive
CHRFAM7A (CHRNA7 (exons 5-10) and FAM7A (exons A-E) fusion) | 4 | -0.19 | 83.6 | 73.3 | inactive
CCN4 (cellular communication network factor 4) | 1 | -0.249 | 42.9 | 36.1 | inactive
CCN4 (cellular communication network factor 4) | 2 | 0.0827 | 83 | 87.9 | inactive
CCN4 (cellular communication network factor 4) | 3 | -0.0806 | 88.2 | 83.4 | inactive
CCN4 (cellular communication network factor 4) | 4 | -0.244 | 103 | 87 | inactive
XYLB (xylulokinase) | 1 | -0.359 | 106 | 82.7 | inactive
XYLB (xylulokinase) | 2 | 0.712 | 55 | 90.1 | inactive
XYLB (xylulokinase) | 3 | -0.167 | 113 | 100 | inactive
XYLB (xylulokinase) | 4 | -0.302 | 82.9 | 67.2 | inactive
RPGRIP1 (RPGR interacting protein 1) | 1 | 0.471 | 61.5 | 85.2 | inactive
RPGRIP1 (RPGR interacting protein 1) | 2 | -0.183 | 68.9 | 60.7 | inactive
RPGRIP1 (RPGR interacting protein 1) | 3 | 0.148 | 87 | 96.4 | inactive
RPGRIP1 (RPGR interacting protein 1) | 4 | -0.236 | 114 | 97 | inactive
EVI2A (ecotropic viral integration site 2A) | 1 | -0.384 | 87.8 | 67.3 | inactive
EVI2A (ecotropic viral integration site 2A) | 2 | -0.0829 | 107 | 101 | inactive
EVI2A (ecotropic viral integration site 2A) | 3 | -0.0613 | 88 | 84.3 | inactive
EVI2A (ecotropic viral integration site 2A) | 4 | -0.654 | 66.1 | 42 | inactive
AKR7A3 (aldo-keto reductase family 7 member A3) | 1 | 0.217 | 60 | 69.7 | inactive
AKR7A3 (aldo-keto reductase family 7 member A3) | 2 | -0.144 | 115 | 104 | inactive
AKR7A3 (aldo-keto reductase family 7 member A3) | 3 | -0.195 | 91.1 | 79.6 | inactive
AKR7A3 (aldo-keto reductase family 7 member A3) | 4 | 0.131 | 66.2 | 72.5 | inactive
UBE2K (ubiquitin conjugating enzyme E2 K) | 1 | -0.515 | 68.5 | 47.9 | inactive
UBE2K (ubiquitin conjugating enzyme E2 K) | 2 | -0.417 | 49.8 | 37.3 | inactive
UBE2K (ubiquitin conjugating enzyme E2 K) | 3 | -0.311 | 85.2 | 68.7 | inactive
UBE2K (ubiquitin conjugating enzyme E2 K) | 4 | -0.615 | 95.9 | 62.6 | inactive
KLC2 (kinesin light chain 2) | 1 | -0.283 | 79 | 64.9 | inactive
KLC2 (kinesin light chain 2) | 2 | -0.115 | 40.7 | 37.5 | inactive
KLC2 (kinesin light chain 2) | 3 | -0.512 | 23.6 | 16.5 | inactive
CASP16P (caspase 16, pseudogene) | 1 | -0.0949 | 85.1 | 79.7 | inactive
CASP16P (caspase 16, pseudogene) | 2 | -0.497 | 86.1 | 61 | inactive
CASP16P (caspase 16, pseudogene) | 3 | -0.308 | 59.7 | 48.3 | inactive
CASP16P (caspase 16, pseudogene) | 4 | -0.24 | 54.2 | 45.9 | inactive
SLIT1 (slit guidance ligand 1) | 1 | -0.206 | 89.1 | 77.2 | inactive
SLIT1 (slit guidance ligand 1) | 2 | -0.657 | 92 | 58.4 | inactive
SLIT1 (slit guidance ligand 1) | 3 | 0.886 | 26.8 | 49.5 | inactive
SLIT1 (slit guidance ligand 1) | 4 | 0.0756 | 80.1 | 84.4 | inactive
DHRS11 (dehydrogenase/reductase 11) | 1 | 1.78 | 4.9 | 16.8 | inactive
DHRS11 (dehydrogenase/reductase 11) | 2 | -0.202 | 68.2 | 59.2 | inactive
DHRS11 (dehydrogenase/reductase 11) | 3 | -0.177 | 72.2 | 63.8 | inactive
DHRS11 (dehydrogenase/reductase 11) | 4 | -0.305 | 8.91 | 7.21 | inactive
SIRPG (signal regulatory protein gamma) | 1 | -0.199 | 113 | 98.6 | inactive
SIRPG (signal regulatory protein gamma) | 2 | -0.146 | 60.8 | 55 | inactive
SIRPG (signal regulatory protein gamma) | 3 | -0.169 | 50.4 | 44.8 | inactive
TRPC6 | 1 | -0.161 | 105 | 93.9 | inactive
TRPC6 | 2 | 0.643 | 40.5 | 63.2 | inactive
TRPC6 | 3 | -0.0236 | 105 | 104 | inactive
SLC4A10 | 1 | -0.0398 | 105 | 103 | inactive
SLC4A10 | 2 | -0.447 | 67.8 | 49.8 | inactive
SLC4A10 | 3 | -0.117 | 70 | 64.6 | inactive
SLC4A10 | 4 | 0.275 | 85.9 | 104 | inactive
AKR1C8 (aldo-keto reductase family 1 member C8) | 1 | -0.278 | 85.9 | 70.8 | inactive
AKR1C8 (aldo-keto reductase family 1 member C8) | 2 | -0.138 | 98.4 | 89.4 | inactive
AKR1C8 (aldo-keto reductase family 1 member C8) | 3 | -0.374 | 24.4 | 18.9 | inactive
NRXN2 (neurexin 2) | 1 | -0.33 | 76.9 | 61.1 | inactive
NRXN2 (neurexin 2) | 2 | -0.54 | 20.8 | 14.3 | inactive
NRXN2 (neurexin 2) | 3 | 0.15 | 47 | 52.1 | inactive
NRXN2 (neurexin 2) | 4 | -0.421 | 42.3 | 31.6 | inactive

Continued, starting with the last 11 of the part before.
gene knocked down | reagent | log2 vehicle/camptothecin viability | viability with camptothecin (% of control) | viability without drug (% of control) | Outcome
SLC4A10 | 1 | -0.0398 | 105 | 103 | inactive
SLC4A10 | 2 | -0.447 | 67.8 | 49.8 | inactive
SLC4A10 | 3 | -0.117 | 70 | 64.6 | inactive
SLC4A10 | 4 | 0.275 | 85.9 | 104 | inactive
AKR1C8 (aldo-keto reductase family 1 member C8) | 1 | -0.278 | 85.9 | 70.8 | inactive
AKR1C8 (aldo-keto reductase family 1 member C8) | 2 | -0.138 | 98.4 | 89.4 | inactive
AKR1C8 (aldo-keto reductase family 1 member C8) | 3 | -0.374 | 24.4 | 18.9 | inactive
NRXN2 (neurexin 2) | 1 | -0.33 | 76.9 | 61.1 | inactive
NRXN2 (neurexin 2) | 2 | -0.54 | 20.8 | 14.3 | inactive
NRXN2 (neurexin 2) | 3 | 0.15 | 47 | 52.1 | inactive
NRXN2 (neurexin 2) | 4 | -0.421 | 42.3 | 31.6 | inactive
CCDC170 (coiled-coil domain containing 170) | 1 | -0.0445 | 105 | 102 | inactive
CCDC170 (coiled-coil domain containing 170) | 2 | -0.329 | 91.6 | 72.9 | inactive
CCDC170 (coiled-coil domain containing 170) | 3 | -0.103 | 57.2 | 53.2 | inactive
CCDC170 (coiled-coil domain containing 170) | 4 | -0.109 | 100 | 93 | inactive
PEX5 (peroxisomal biogenesis factor 5) | 1 | 0.422 | 17.1 | 22.9 | inactive
PEX5 (peroxisomal biogenesis factor 5) | 2 | 0.0405 | 78.5 | 80.8 | inactive
PEX5 (peroxisomal biogenesis factor 5) | 3 | -0.258 | 90.4 | 75.6 | inactive
KCNG3 | 1 | -0.303 | 63.7 | 51.6 | inactive
KCNG3 | 2 | 0.394 | 55.2 | 72.5 | inactive
KCNG3 | 3 | 0.0847 | 93 | 98.6 | inactive
KCNG3 | 4 | 0.0242 | 95.6 | 97.2 | inactive
RAB4B (RAB4B, member RAS oncogene family) | 1 | -0.153 | 78.7 | 70.7 | inactive
RAB4B (RAB4B, member RAS oncogene family) | 2 | -0.13 | 31.8 | 29 | inactive
RAB4B (RAB4B, member RAS oncogene family) | 3 | 0.0762 | 19.8 | 20.9 | inactive
RAB4B (RAB4B, member RAS oncogene family) | 4 | -0.291 | 28.8 | 23.5 | inactive
SERPINA7 (serpin family A member 7) | 1 | -0.107 | 75.7 | 70.3 | inactive
SERPINA7 (serpin family A member 7) | 2 | -0.215 | 103 | 88.8 | inactive
SERPINA7 (serpin family A member 7) | 3 | 0.141 | 80.4 | 88.7 | inactive
MMP13 (matrix metallopeptidase 13) | 1 | -0.0981 | 85.6 | 80 | inactive
MMP13 (matrix metallopeptidase 13) | 2 | -0.912 | 54.6 | 29 | inactive
MMP13 (matrix metallopeptidase 13) | 3 | 0.0259 | 106 | 108 | inactive
MMP13 (matrix metallopeptidase 13) | 4 | -0.34 | 88.8 | 70.2 | inactive
DIMT1 (DIM1 rRNA methyltransferase and ribosome maturation factor) | 1 | 0.423 | 32.1 | 43.1 | inactive
DIMT1 (DIM1 rRNA methyltransferase and ribosome maturation factor) | 2 | -0.296 | 92.7 | 75.4 | inactive
DIMT1 (DIM1 rRNA methyltransferase and ribosome maturation factor) | 3 | -0.199 | 95.9 | 83.5 | inactive
DIMT1 (DIM1 rRNA methyltransferase and ribosome maturation factor) | 4 | -0.176 | 65.4 | 57.9 | inactive
PFKL (phosphofructokinase, liver type) | 1 | -0.693 | 98.2 | 60.7 | inactive
PFKL (phosphofructokinase, liver type) | 2 | -0.411 | 95 | 71.4 | inactive
PFKL (phosphofructokinase, liver type) | 3 | 0.354 | 34.2 | 43.7 | inactive
PFKL (phosphofructokinase, liver type) | 4 | -0.199 | 14.1 | 12.3 | inactive
